The record followed here is the supplement of paper PMC5407854, “Inhibitor of ppGalNAc-T3-mediated O-glycosylation blocks cancer cell invasiveness and lowers FGF23 levels” (eLife, 2017).

The full ranking holds about 1,700 compounds; the median of “T2 sensor activation Q score (MG/GFP ratio z-score vs DMSO controls)” is about 0.3, and the highest 2% start at about 1.9. Some of the results follow.

This assay relates to ppGalNAc-T2 sensor. Briefly: T2 sensor activation Q score (MG/GFP ratio z-score vs DMSO controls) (SD units); higher = more sensor activation (inhibition of ppGalNAc-T2 glycosylation). The following applies: HEK293 sensor cells; 10 µM; 6 h. The protocol:
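Cells were treated with compound at 10 uM for 6 h, then MG/GFP ratio was read by flow cytometry (10,000 cells per well, duplicate wells). Q = (R - R_neg)/SD_neg relative to DMSO vehicle controls; the signal rises when the glycosyltransferase is inhibited.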
On to `Cc1cccc(NC(=S)Nc2cccc(C)n2)n1`, for which the “T2 sensor activation Q score” value came to 1.4.
As to `C=CCNC(=S)NCC=C`, the “T2 sensor activation Q score” value was -1.6.
The figure for `O=C1C2C3C=CC(CC3)C2S(=O)(=O)C2C3C=CC(CC3)C12` (stereo unspecified) is 1.8.
For `c1ccc(-c2ccc3c(c2)NC(C2Nc4cc(-c5ccccc5)ccc4O2)O3)cc1` (stereo unspecified), the “T2 sensor activation Q score” value is -0.1.
The same measure for `Cc1cc(NC(=O)Nc2cc(Cl)ccc2C)no1`: -1.
The figure for `CN(C)N1C(=O)c2c(Cl)c(Cl)c(Cl)c(Cl)c2C1=O` is 0.65.
For the compound `N#CC1=C(Nc2ccccc2Cl)SC(c2ccncc2)NC1=O` (stereo unspecified), the “T2 sensor activation Q score” value came out at 1.8.
The same measure for `ClN=C1C=CC=CC1=NCl`: 1.45; for `Clc1nnc2c3ccccc3ccn12`: 1.85.
In the case of `Cc1nc(N)[nH]c(=O)c1CCCNc1ccc(CCC2(CCl)OCCO2)cc1`, the “T2 sensor activation Q score” value amounted to 0.2.
With `NC(N)=Nc1nc2ccc([N+](=O)[O-])cc2[nH]1`, the “T2 sensor activation Q score” value amounted to 0.35.
The same measure for `c1ccc2sc(SCSc3nc4ccccc4s3)nc2c1`: -1.6.
`Nc1cccc2c1CN(C1CCC(=O)NC1=O)C2=O` (stereo unspecified): the “T2 sensor activation Q score” value is -0.4.
Consider `O=C(Cn1ccc(=O)[nH]c1=O)Nc1ccc(C(=O)O)c(O)c1`, for which the “T2 sensor activation Q score” value was found to be 0.5.
The figure for `O=C1OCC/C1=C\c1ccc(O)cc1` is 1.3; for `C=C(C)CN=CC1(C)CCC(C)=CO1` (stereo unspecified) it is 0.2; for `CCCNC(=O)Nc1ccc(C)cc1C` it is 0.85.
The figure for `S=c1[nH]c2cc(-c3ccccc3)ccc2o1` is 0.65; for `CCOC(=O)c1nnsc1-c1ccc(-c2snnc2C(=O)OCC)cc1` it is 0.95; for `COc1ccc(C(=S)N2CCN(c3cccc(Cl)c3)CC2)cc1` it is 0.55.
Consider `O=C(Oc1ccc[nH]c1=O)c1cccc(Cl)c1`, for which the “T2 sensor activation Q score” value came out at 1.1.
The figure for `CNC(=O)Nc1ccc(S(N)(=O)=O)cc1` is 0.15.
As to `Cc1ccc2nc(Cl)cc(=O)n2c1`, the “T2 sensor activation Q score” value was -0.25.
For `C(=C\c1ccc(/C=C/c2ccccc2)nn1)/c1ccccc1`, the “T2 sensor activation Q score” value was found to be 1.45.
The same measure for `Cc1nnc(Cc2ccccc2)c2n[nH]c(C)c12`: 0.65; for `Oc1ccc(N=Nc2nccs2)c(O)c1`: -0.75.
The figure for `O=C(Nc1cc(-c2ccccc2)[nH]n1)c1ccc(Cl)cc1` is 1.45.
The same measure for `NNC(=O)CNc1cccc(Br)c1`: -0.1; for `Nc1nc(Nc2ccccc2)n[nH]1`: 1.2; for `COc1ccc(N=Nc2c(N)n[nH]c2N)cc1`: -0.95.
With `O=C(Nc1ccc2ncccc2c1)Nc1ccc2ncccc2c1`, the “T2 sensor activation Q score” value was -0.4.
The same measure for `O=C1C(Cl)=C(O)C2(Cl)C(Cl)=C(Cl)C12Cl` (stereo unspecified): 1.
For the compound `Cc1cccc2cc3cccc(C)c3nc12`, the “T2 sensor activation Q score” value turned out to be 0.3.
As for `CCOC(=O)c1cnc(SCC)[nH]c1=O`, the “T2 sensor activation Q score” value was 0.9.
Take `COc1ccc(C(=S)N2CCN(c3ccccc3Cl)CC2)cc1OC`: the “T2 sensor activation Q score” value was determined as 0.45.
The figure for `COC(=O)c1c[n+]([O-])ccc1OC` is 1.25; for `CC1OC1c1ccc(-c2ccc(C3OC3C)cc2)cc1` (stereo unspecified) it is 0.65.
The same measure for `NC(=O)c1ncn2c(=O)n(CCCl)nnc12`: 0.9; for `CN(C)CCCN1c2ccc3ccccc3c2Sc2cccc(Cl)c21`: -1.75.
The figure for `O=C(NCc1ccco1)Nc1ccc([N+](=O)[O-])cc1` is 1.75; for `O=C(O)C1=NN(c2cc(Cl)c(S(=O)(=O)O)cc2Cl)C(=O)C1` it is 1.3; for `CCC(C)Oc1nc2c(c(=O)n(C)c(=O)n2C)n1C` (stereo unspecified) it is 1.5.
Take `O=C(Nc1ccc(Br)cc1)Nc1ccccc1Cl`: the “T2 sensor activation Q score” value is -0.9.
The figure for `CCCCCCC(C)OC(=O)c1ccccc1C(=O)O` (stereo unspecified) is -1.1.
The figure for `CC(=O)O[C@H]1CC[C@@]2(C)[C@@H](CC[C@@H]3[C@@H]2CC(=O)[C@@]2(C)[C@H]3C[C@@H]3CC(C)=CC(=O)[C@@H]32)C1` is -1.75.
With `Clc1cc2c(c(CSc3nc4ccccc4n4cccc34)c1)OCOC2`, the “T2 sensor activation Q score” value is 0.95.
